{
  "source": "patent EP3807241B1",
  "about": "“IMPROVEMENTS IN OR RELATING TO ORGANIC COMPOUNDS” (Givaudan SA, priority 2018, dated 2019)",
  "assay": "Odor description",
  "data": [
    {"smiles": "CC(C)CC1=CCC(CCC=O)C(C)C1", "note": "(centres unmarked) [3-(4-isobutyl-6-methylcyclohex-3-en-1-yl)propanal]", "values": [
      {"measurement": "Odor Description", "value": "aldehydic, green, floral, fatty, orris"}
    ]},
    {"smiles": "CC1=C(CCC=O)CCC(C(C)C)C1", "note": "(centres unmarked) [3-(4-isopropyl-2-methylcyclo-hex-1-en-1-yl)propanal]", "values": [
      {"measurement": "Odor Description", "value": "aldehydic, green, fatty, muguet, bourgeonal"}
    ]}
  ]
}
